Laboratory results reported in US20050044592A1.
Results are given in words; binding and its absence hold for the method and conditions named. Some entries that bind do so weakly or less than the wild type.

Protein sequences, listed by entry. Tags and fused reporters are not part of them. Lines headed by an entry give the natural chain unless they say otherwise; changes in a name come on top.
UniProt P04386: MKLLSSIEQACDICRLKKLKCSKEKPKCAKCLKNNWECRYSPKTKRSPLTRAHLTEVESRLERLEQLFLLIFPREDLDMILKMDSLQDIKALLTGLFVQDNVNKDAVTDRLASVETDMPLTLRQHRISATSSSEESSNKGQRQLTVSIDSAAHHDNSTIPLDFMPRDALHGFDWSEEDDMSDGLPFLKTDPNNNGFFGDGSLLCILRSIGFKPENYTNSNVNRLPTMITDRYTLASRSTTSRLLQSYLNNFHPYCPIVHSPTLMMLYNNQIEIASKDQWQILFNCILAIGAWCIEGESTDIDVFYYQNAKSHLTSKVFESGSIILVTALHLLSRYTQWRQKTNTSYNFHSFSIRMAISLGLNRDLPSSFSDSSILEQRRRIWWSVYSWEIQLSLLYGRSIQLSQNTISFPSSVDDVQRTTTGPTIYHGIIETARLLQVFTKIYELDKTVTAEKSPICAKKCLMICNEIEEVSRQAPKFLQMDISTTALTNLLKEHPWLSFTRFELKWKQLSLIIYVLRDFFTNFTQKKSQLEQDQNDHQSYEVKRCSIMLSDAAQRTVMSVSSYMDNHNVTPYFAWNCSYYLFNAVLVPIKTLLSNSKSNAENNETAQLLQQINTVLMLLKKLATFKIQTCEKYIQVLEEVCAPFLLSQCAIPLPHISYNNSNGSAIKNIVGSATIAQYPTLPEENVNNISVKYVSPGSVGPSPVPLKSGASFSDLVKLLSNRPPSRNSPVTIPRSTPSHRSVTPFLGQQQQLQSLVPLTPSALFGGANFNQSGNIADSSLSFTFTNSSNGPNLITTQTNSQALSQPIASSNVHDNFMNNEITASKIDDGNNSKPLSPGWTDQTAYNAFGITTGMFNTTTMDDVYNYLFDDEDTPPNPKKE

Tests used:
[1] = target: T1, RB-related protein (UniProt Q9LKZ3); experiment: yeast two-hybrid screen (DRL1 bait, cell suspension cDNA library), confirmed by retransformation; 2 clones
T1 sequence (looked up): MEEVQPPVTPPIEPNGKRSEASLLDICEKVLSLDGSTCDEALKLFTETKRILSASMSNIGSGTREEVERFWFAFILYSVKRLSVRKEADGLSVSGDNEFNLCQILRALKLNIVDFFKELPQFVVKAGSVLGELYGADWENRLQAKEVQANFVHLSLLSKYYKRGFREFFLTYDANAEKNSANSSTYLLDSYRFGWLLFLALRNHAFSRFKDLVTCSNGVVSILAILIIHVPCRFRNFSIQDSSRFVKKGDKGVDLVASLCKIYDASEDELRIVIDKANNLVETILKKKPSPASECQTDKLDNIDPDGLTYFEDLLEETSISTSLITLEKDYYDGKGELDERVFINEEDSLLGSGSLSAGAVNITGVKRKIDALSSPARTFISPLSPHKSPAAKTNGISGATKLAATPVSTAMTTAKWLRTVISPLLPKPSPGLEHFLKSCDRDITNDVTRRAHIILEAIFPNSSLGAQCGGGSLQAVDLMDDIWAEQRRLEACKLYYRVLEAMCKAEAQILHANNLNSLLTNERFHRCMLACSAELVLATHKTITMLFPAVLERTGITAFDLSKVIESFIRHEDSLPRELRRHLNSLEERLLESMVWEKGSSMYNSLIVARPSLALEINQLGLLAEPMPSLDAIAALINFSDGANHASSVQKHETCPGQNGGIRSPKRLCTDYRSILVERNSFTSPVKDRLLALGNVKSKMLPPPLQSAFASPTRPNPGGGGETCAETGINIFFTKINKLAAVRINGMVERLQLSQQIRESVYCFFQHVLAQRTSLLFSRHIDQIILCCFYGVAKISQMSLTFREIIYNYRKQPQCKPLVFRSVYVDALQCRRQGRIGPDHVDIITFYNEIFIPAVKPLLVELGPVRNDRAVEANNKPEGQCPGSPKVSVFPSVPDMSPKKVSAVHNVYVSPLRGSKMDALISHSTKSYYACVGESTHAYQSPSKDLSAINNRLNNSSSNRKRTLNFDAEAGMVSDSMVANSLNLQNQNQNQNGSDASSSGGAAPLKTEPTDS

[2] = target: T2, ATHB12 (UniProt Q9M276); experiment: yeast two-hybrid screen (DRL1 bait, cell suspension cDNA library), confirmed by retransformation; 1 clone
T2 sequence (looked up): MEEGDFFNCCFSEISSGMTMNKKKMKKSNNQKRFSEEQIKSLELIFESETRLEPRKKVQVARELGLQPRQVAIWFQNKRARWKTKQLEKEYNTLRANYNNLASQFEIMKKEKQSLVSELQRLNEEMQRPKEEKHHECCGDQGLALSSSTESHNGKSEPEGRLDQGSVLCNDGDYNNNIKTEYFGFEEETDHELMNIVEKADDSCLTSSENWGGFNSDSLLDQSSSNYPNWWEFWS

[3] = target: T2, ATHB12; experiment: yeast two-hybrid screen, confirmed by retransformation
[4] = target: T1, RB-related protein; experiment: as above

- binding [1]: binds
- binding [2]: binds
- binding [3]: binds
- binding [4]: binds
Substance: DRL1 (DEFORMED ROOT AND LEAF1) entire coding sequence as yeast two-hybrid bait (GAL4 DNA-BD fusion in pGBKT7) (from UniProt P04386 1-147; Q9LMH0 1-302)
